Results from article PMC12040169 (PLOS Biology, 2025).
This is one part of the list.

Each compound was assayed on T1, CTL2-GFP (C. trachomatis L2/434/Bu, GFP-expressing). Settings: bulk GFP, single well; 28.5 h, 10 µM; inhibitor.
T1 construct: L2/434/Bu, GFP-expressing
Set-up: species or system HeLa; Intracellular C. trachomatis growth in HeLa cells, bulk GFP fluorescence relative to DMSO

Row | SMILES | % of control remaining [%]
1 | NC(=O)CN(CC(N)=O)S(=O)(=O)c1ccccc1 [CBK262490] | 122.693
2 | O=C(CNC(=S)NC(=O)c1ccc(Br)o1)c1ccccc1 [CBK265310] | 101.224
3 | CCCC/C=C/c1nccnc1NCc1ccc2c(c1)OCO2 [CBK037304] | 164.872
4 | Cc1ccccc1OCC1CCCN(C(=O)C2CC(=O)OC2(C)C)C1 (stereo not shown) [CBK282062] | 107.853
5 | Cc1nnc([C@H]2CCN(Cc3cccs3)C2)o1 [CBK289393] | 141.325
6 | Cc1ccc(Cl)cc1NC(=O)CC(C(=O)O)N(C)C (stereo not shown) [CBK267105] | 118.741
7 | Cc1ccsc1CN1CCCCC1CO (stereo not shown) [CBK026348] | 106.876
8 | CC(C)(C)C(=O)NCc1ccc(C(=O)CSc2n[nH]c(=O)n2C2CC2)s1 [CBK295653] | 127.634
9 | Nc1nonc1-c1nc2ccccc2n1Cc1cc2c(cc1Br)OCO2 [CBK267961] | 108.289
10 | O=C(NCC1(CCO)CC1)c1c[nH]nc1-c1cc2ccccc2o1 [CBK306163] | 113.448
11 | COc1ccc(CNC(=O)C2CC(=O)N(c3ccc(O)cc3)C2)cc1 (stereo not shown) [CBK270125] | 97.8413
12 | Cc1cc(C)n(CCCNC(=O)Nc2cccnc2)n1 [CBK304820] | 94.027
13 | CC(C)N(C(=O)CN1C(=O)N2CCCN=C2c2ccccc21)C(C)C [CBK284400] | 82.2993
14 | O=C(O)CCc1ccc(-c2cn3ccnc3c(N3CCOCC3)n2)cc1 [CBK066166] | 170.372
15 | Cc1cc(CNC(=O)C(C)n2cnc3ccccc32)on1 (stereo not shown) [CBK282196] | 127.476
16 | O=C1CCC(C(=O)Nc2cnc(-c3cccc(C(F)(F)F)c3)c(-c3cccnc3)n2)=NN1 [CBK036950] | 120.1
17 | O=C(O)CC1C(=O)NCCN1Cc1ccccc1Cl (stereo not shown) [CBK270114] | 132.835
18 | CCCC(=O)c1ccc(S(=O)(=O)N2CCN(Cc3cccc(Br)c3)CC2)cc1 [CBK063146] | 84.7339
19 | NC(=O)c1cccc(OCCOc2nccnc2N2CCNCC2)c1 [CBK014338G] | 95.3178
20 | CC(C)c1cc(C(=O)NC2CCOc3ccccc32)no1 (stereo not shown) [CBK283065] | 96.7422
21 | CC(C)(C)c1cc(CCCOC(=O)CNC2CCCCC2)cc(C(C)(C)C)c1O [CBK261998] | 100
22 | C[C@@H](c1ccccc1)n1c(=O)[nH]c2ncc(-c3cccc(C(=O)NCCN(C)C)c3)nc21 [CBK064376] | 153.654
23 | Cc1ccn(CCNC(=O)CC2CC3CCC2C3)n1 (stereo not shown) [CBK282068] | 109.939
24 | O=C1NCC2(CCCN(Cc3ccccc3F)C2)Oc2ccccc21 (stereo not shown) [CBK284901] | 117.176
25 | CCCn1ccnc1-c1cn(Cc2cc(C(C)(C)C)n[nH]2)nn1 [CBK306791] | 107.126
26 | CC(C)(C)OC(=O)NC1CCC(NCc2cc(F)cc(F)c2)CC1 (stereo not shown) [CBK056689] | 175.731
27 | Cc1cc(=O)n(CC(=O)NC(C)c2ccccn2)c2ccccc12 (stereo not shown) [CBK281820] | 142.413

Molecules shown so far that have a carbonyl joined to an NH by a bond outside any ring:
Row | SMILES | % of control remaining [%]
1 | NC(=O)CN(CC(N)=O)S(=O)(=O)c1ccccc1 [CBK262490] | 122.693
2 | O=C(CNC(=S)NC(=O)c1ccc(Br)o1)c1ccccc1 [CBK265310] | 101.224
6 | Cc1ccc(Cl)cc1NC(=O)CC(C(=O)O)N(C)C (stereo not shown) [CBK267105] | 118.741
8 | CC(C)(C)C(=O)NCc1ccc(C(=O)CSc2n[nH]c(=O)n2C2CC2)s1 [CBK295653] | 127.634
10 | O=C(NCC1(CCO)CC1)c1c[nH]nc1-c1cc2ccccc2o1 [CBK306163] | 113.448
11 | COc1ccc(CNC(=O)C2CC(=O)N(c3ccc(O)cc3)C2)cc1 (stereo not shown) [CBK270125] | 97.8413
12 | Cc1cc(C)n(CCCNC(=O)Nc2cccnc2)n1 [CBK304820] | 94.027
15 | Cc1cc(CNC(=O)C(C)n2cnc3ccccc32)on1 (stereo not shown) [CBK282196] | 127.476
16 | O=C1CCC(C(=O)Nc2cnc(-c3cccc(C(F)(F)F)c3)c(-c3cccnc3)n2)=NN1 [CBK036950] | 120.1
19 | NC(=O)c1cccc(OCCOc2nccnc2N2CCNCC2)c1 [CBK014338G] | 95.3178
20 | CC(C)c1cc(C(=O)NC2CCOc3ccccc32)no1 (stereo not shown) [CBK283065] | 96.7422
22 | C[C@@H](c1ccccc1)n1c(=O)[nH]c2ncc(-c3cccc(C(=O)NCCN(C)C)c3)nc21 [CBK064376] | 153.654
23 | Cc1ccn(CCNC(=O)CC2CC3CCC2C3)n1 (stereo not shown) [CBK282068] | 109.939
26 | CC(C)(C)OC(=O)NC1CCC(NCc2cc(F)cc(F)c2)CC1 (stereo not shown) [CBK056689] | 175.731
27 | Cc1cc(=O)n(CC(=O)NC(C)c2ccccn2)c2ccccc12 (stereo not shown) [CBK281820] | 142.413

Further structures:

Row | SMILES | % of control remaining [%]
28 | O=C(CCc1cccnc1)NC1Cc2ccccc2C1 [CBK200352] | 124.466
29 | Cc1ccc(-c2nc3ccccc3[nH]2)cc1NC(=O)COc1cccc([N+](=O)[O-])c1 [CBK265932] | 207.825
30 | Cc1ccc(NC(=O)C2CCCCC2C(=O)O)cc1Cl (stereo not shown) [CBK286938] | 159.65
31 | Cc1ccc(OCCn2c(=N)n(CCN3CCOCC3)c3ccccc32)cc1 [CBK269085B] | 126.583
32 | CCn1c(=O)n(CC(=O)NCc2cccs2)c2cccnc21 [CBK283811] | 129.846
33 | CS(=O)(=O)c1cccc(C(=O)Nc2cnc(-c3ccc(F)c(Cl)c3)c(-c3cccnc3)n2)c1 [CBK036779] | 119.047
34 | NS(=O)(=O)c1ccc(NC(=S)NC(=O)/C=C/c2ccc([N+](=O)[O-])cc2)cc1 [CBK262176] | 121.805
35 | COc1cc(C(=O)O)ccc1Oc1cnn(-c2ccccc2)c(=O)c1Cl [CBK287032] | 126.161
36 | COc1ccc(C(=O)CCCN2CCc3c([nH]c4ccc(OC)cc34)C2)cc1 [CBK083515T] | 122.349
37 | COC(=O)CCC(=O)N1CCc2c([nH]c3ccccc23)C12CCN(CCCc1ccccc1OC)C2 (stereo not shown) [CBK074952] | 118.932
38 | Cc1nc(C)n(CC2CCCN(Cc3ccc(C#N)cc3)C2)n1 (stereo not shown) [CBK305082] | 111.196
39 | O=[N+]([O-])c1ccc(/C=N/n2c(S)nnc2COc2ccccc2)cc1 [CBK265240] | 122.084
40 | Cc1cc(S(=O)(=O)N(CCC#N)Cc2ccccc2)c(C)cc1Cl [CBK043461] | 113.648
41 | CC(C)c1ccc(S(=O)(=O)N2CCN(c3ncnc4c3oc3ccccc34)CC2)cc1 [CBK296936] | 120.529
42 | NS(=O)(=O)c1cccnc1NCc1ccccc1 [CBK288448] | 128.114
43 | O=C(O)c1cccc(NC(=O)c2ccc3c(c2)C(=O)N(Cc2cccnc2)C3=O)c1 [CBK265523] | 100
44 | c1ccc(-c2ccc(Nc3ccc4c(c3)OCCO4)nc2)cc1 [CBK037802] | 151.816
45 | N#Cc1ccc(Oc2cccc(C(F)(F)F)c2)c(F)c1 [CBK002801] | 125.974
46 | CCOC(=O)C1(NC(=O)C2(Oc3cccnc3C)CCNCC2)CCC1 [CBK306688] | 149.516
47 | O=C1CN(C(=O)NC2CCc3ccccc32)CCN1 (stereo not shown) [CBK155878] | 104.109
48 | Cc1nn(C)c(C)c1CCn1cncc1-c1ccc2c(c1)CC(C)N2C (stereo not shown) [CBK281788] | 111.456
49 | COCc1nnc(Sc2cc(NC(C)C)ncn2)s1 [CBK093784] | 103.099
50 | CN(CC1(C)COC1)C(=O)c1ccc2c(c1)ncn2C1CC1 [CBK281718] | 129.07
51 | O=S(=O)(Nc1cnc2ccccc2c1)c1cccs1 [CBK043694] | 158.523
52 | CC[C@H](Cn1ncc2ccccc2c1=O)NC(=O)C(C)(C)C [CBK284304] | 135.021
53 | O=C(CSc1ccc2ccccc2n1)NNC(=O)c1cccc([N+](=O)[O-])c1 [CBK262506] | 129.367
54 | CCN(CC)C(=O)c1cccc(NC(=O)Cc2cn3ccsc3n2)c1 [CBK305353] | 99.7964

Row | SMILES | % of control remaining [%]
55 | Cc1nc(-c2ccccc2)ncc1COC(=O)N1CCOCC1 [CBK200147] | 99.3883
56 | Cc1ccc([N+](=O)[O-])cc1S(=O)(=O)Nc1ccc(O)c(Sc2nc3ccccc3s2)c1 [CBK266936] | 164.357
57 | C=CCOc1c(Br)cc(CNc2ccc(C(=O)O)cc2)cc1OC [CBK267202] | 68.1001
58 | CN1CCN(CCCNC(=O)c2ccc(-c3ccoc3)nc2)CC1 [CBK156257] | 129.131
59 | O=C1c2cc(S(=O)(=O)NCc3ccco3)ccc2-c2ccc(S(=O)(=O)NCc3ccco3)cc21 [CBK262250] | 116.505
60 | NS(=O)(=O)c1ccc(NC(=S)NNC(=O)c2ccc(Br)o2)cc1 [CBK266972] | 172.548
61 | Cc1ccccc1Oc1ccccc1NC(=O)CN1CCCCC1 [CBK015781C] | 87.8986
62 | CCOc1cc(NC2CCN(C(=O)NCC(F)F)CC2)ncn1 [CBK305485] | 149.711
63 | COc1ccccc1N1CCN(C(=O)NCC2CCCCC2)CC1 [CBK155588] | 109.407
64 | Clc1ccc(SCCCNCCN2CCOCC2)cc1 [CBK268603C] | 146.619
65 | CC(=O)c1cccc(NC(=O)Nc2cccc(S(=O)(=O)N3CCOCC3)c2)c1 [CBK266996] | 147.443
66 | O=C(NC(=O)C1CCN(CCc2cccc(C(F)(F)F)c2)CC1)Nc1cccc2ccccc12 [CBK035070] | 115.539
67 | CCC1(CC)OC(NC2CCCc3ccccc32)=NC1=O (stereo not shown) [CBK126555] | 117.299
68 | O=C(c1cc(Br)cc2c1OCC2)N1CCCCC1 [CBK007109] | 117.887
69 | Oc1ccc(Cl)cc1/C=N/c1ccc(-c2cc(-c3ccc(/N=C/c4cc(Cl)ccc4O)cc3)ncn2)cc1 [CBK261626] | 122.992
70 | O=C(Nc1ccc(-c2c3ccccc3c(-c3ccc(NC(=O)c4cccc5ccccc45)cc3)c3ccccc23)cc1)c1cccc2ccccc12 [CBK261164] | 118.024
71 | Clc1ccc(-c2cc(N3CCN(c4ccccn4)CC3)ncn2)cc1 [CBK091085] | 129.788
72 | CCOC(=O)N1CCC(NC(=O)N2CCN(C3CCN(C)CC3)CC2)CC1 [CBK156113] | 116.132
73 | CS(=O)(=O)c1ccccc1C(=O)n1ccn(-c2ccc(Oc3ccccc3)cc2)c1=O [CBK106647] | 100
74 | Cc1ccc(Cn2c(CN3CCOCC3)nc3c2c(=O)n(C)c(=O)n3C)cc1 [CBK269583] | 102.474
75 | c1ccc(CSc2nc3ccccc3s2)nc1 [CBK027737] | 106.902
76 | O=C(NCCCn1ccnn1)c1cccc(S(=O)(=O)N2CCCCC2)c1 [CBK304660] | 130.744
77 | O=C(c1ccco1)N1CCC[C@H]1[C@H](O)c1nccs1 [CBK284286] | 102.802
78 | O=S(=O)(NC1c2cccc3cccc(c23)C1Sc1ncccn1)c1ccc(Cl)cc1 (stereo not shown) [CBK264638] | 104.877
79 | CN(C)c1cccc(-c2cncc(Nc3cccc(C(F)(F)F)c3)n2)c1 [CBK065786] | 152.004

Looked up one by one from the entries so far, 2 records:
Row | SMILES | % of control remaining [%]
72 | CCOC(=O)N1CCC(NC(=O)N2CCN(C3CCN(C)CC3)CC2)CC1 [CBK156113] | 116.132
69 | Oc1ccc(Cl)cc1/C=N/c1ccc(-c2cc(-c3ccc(/N=C/c4cc(Cl)ccc4O)cc3)ncn2)cc1 [CBK261626] | 122.992
